No constants are given. Whether binding was seen depends on the method and setting. A result given as binding can be weak or reduced; the word gives no strength. Sequences can lack the tags named with a protein. For some assays here: Binding seen in cells or lysates may run through a third protein.
What was measured:
[1] = target: T1, GFP-tagged RIC-19 (C. elegans) (UniProt P91124); experiment: co-IP; HEK293 cells co-transfected with GFP-RIC-19 (or GFP) and V5-TBC-8; lysis in 50 mM Tris pH 7.5, 150 mM NaCl, 1% Triton X 100; anti-GFP antibody (clone 3E6) and Protein G Plus-sepharose at 4°C; washes with 500 mM NaCl; blots with anti-GFP and anti-V5
T1 sequence: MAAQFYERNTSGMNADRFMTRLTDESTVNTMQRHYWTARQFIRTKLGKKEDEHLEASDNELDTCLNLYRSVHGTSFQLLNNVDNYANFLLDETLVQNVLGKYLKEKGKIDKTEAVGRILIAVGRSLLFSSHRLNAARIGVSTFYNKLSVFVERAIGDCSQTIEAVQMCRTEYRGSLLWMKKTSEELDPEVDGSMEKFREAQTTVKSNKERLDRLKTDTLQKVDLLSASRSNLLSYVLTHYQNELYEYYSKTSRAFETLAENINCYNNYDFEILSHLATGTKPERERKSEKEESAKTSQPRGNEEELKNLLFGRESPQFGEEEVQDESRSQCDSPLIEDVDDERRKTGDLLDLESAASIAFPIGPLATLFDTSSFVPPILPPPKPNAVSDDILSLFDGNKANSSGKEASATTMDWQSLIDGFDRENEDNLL

[2] = target: T2, RIC-19, RAB-2 effector (yeast two-hybrid fusion) (C. elegans) (UniProt P91124); experiment: two-hybrid; Matchmaker (Clontech), yeast strain AH109; RIC-19 or ICA69 against TBC-8 full length or RUN domain (1-597 aa); growth on plates lacking histidine; empty pGADT7 for self-activation
T2 sequence: T1 sequence

[3] = target: T3, ICA69, human ortholog of RIC-19 (yeast two-hybrid fusion) (human) (UniProt Q05084); experiment: as above
T3 sequence: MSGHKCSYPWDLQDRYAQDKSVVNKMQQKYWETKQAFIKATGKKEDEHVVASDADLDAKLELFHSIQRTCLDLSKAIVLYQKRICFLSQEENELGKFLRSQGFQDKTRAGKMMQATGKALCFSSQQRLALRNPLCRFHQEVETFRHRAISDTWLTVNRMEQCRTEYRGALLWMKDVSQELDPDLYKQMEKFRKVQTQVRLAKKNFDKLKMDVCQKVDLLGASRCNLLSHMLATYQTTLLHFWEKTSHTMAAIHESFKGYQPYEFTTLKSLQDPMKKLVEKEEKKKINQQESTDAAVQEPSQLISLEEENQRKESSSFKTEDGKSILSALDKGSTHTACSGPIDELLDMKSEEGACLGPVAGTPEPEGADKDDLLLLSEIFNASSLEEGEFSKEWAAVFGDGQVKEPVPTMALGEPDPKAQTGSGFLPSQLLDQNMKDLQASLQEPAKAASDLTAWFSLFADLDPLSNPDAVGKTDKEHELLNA

binding [1]	binding [2]	binding [3]	Substance
binds			V5-TBC-8 RUN domain (1–597 aa) (C. elegans) (domain or fragment)
	binds	binds	TBC-8 wild type, full length (Gal4 activation domain fusion) (C. elegans)
	binds	binds	TBC-8 RUN domain (1–597 aa) (Gal4 activation domain fusion) (C. elegans) (domain or fragment)

Reference: article PMC3359978
